No constants are given. Whether binding was seen depends on the method and setting. In cells and extracts the contact can be indirect. Some results given as binding are weak or reduced against the parent protein; the word gives no strength.
How the values were obtained:
[1] = target: T1, activator of G-protein signaling 3 (AGS3) (UniProt Q86YR5); experiment: pull-down
T1 sequence: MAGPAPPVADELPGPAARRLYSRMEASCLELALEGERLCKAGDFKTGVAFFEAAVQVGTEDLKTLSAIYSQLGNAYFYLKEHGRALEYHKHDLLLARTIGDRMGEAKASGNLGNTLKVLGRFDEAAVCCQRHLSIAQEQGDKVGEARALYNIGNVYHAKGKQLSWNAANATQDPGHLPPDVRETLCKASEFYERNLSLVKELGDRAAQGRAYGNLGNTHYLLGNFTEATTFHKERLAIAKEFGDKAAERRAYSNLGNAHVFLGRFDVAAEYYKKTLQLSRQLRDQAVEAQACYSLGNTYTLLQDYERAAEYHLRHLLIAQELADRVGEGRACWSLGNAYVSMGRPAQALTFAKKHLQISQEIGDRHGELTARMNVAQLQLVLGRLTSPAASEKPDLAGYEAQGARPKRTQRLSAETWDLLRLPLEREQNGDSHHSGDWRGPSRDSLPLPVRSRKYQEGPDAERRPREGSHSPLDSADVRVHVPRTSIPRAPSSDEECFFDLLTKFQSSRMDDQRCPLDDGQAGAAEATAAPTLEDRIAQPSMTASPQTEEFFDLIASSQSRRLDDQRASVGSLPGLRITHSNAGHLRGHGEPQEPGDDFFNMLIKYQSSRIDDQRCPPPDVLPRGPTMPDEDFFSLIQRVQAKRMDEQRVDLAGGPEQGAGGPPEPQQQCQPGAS

Amino acid sequences for entries named in this document (tags omitted).
UniProt P08753: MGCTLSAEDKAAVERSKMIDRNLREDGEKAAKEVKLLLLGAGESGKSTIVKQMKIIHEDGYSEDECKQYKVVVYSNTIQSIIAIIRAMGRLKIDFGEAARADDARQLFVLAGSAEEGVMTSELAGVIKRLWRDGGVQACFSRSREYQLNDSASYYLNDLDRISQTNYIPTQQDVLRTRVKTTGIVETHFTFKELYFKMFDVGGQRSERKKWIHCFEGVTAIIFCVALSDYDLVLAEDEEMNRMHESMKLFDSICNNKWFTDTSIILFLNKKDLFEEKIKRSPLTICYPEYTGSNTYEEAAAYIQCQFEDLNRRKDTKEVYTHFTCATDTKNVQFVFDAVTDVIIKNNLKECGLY

[2] = target: T2, Gα-interacting protein (GAIP) (UniProt P49795); experiment: pull-down
T2 sequence: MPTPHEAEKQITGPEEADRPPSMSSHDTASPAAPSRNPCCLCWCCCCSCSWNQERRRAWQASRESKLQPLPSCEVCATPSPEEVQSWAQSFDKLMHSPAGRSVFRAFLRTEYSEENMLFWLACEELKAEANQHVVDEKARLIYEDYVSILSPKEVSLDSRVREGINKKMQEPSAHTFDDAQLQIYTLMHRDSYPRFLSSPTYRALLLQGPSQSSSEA

Substance	binding [1]	binding [2]
Gαi3-FLAG, non-phosphorylated (from UniProt P08753 1-354)	binds	binds
Gαi3-FLAG, phosphotyrosinated (induced by EGF) (from UniProt P08753 1-354)	binds	binds

From publication doi:10.1101/2022.09.11.507491
